Source: article PMC12611769, “Phase-separated NDF−FACT condensates facilitate transcription elongation on chromatin” (Nature Cell Biology, 2025)
These are yes or no findings as the source states them, for the method shown. Binding calls can cover weak binding; strength is not graded here.

Chains of the proteins cited; added tags and fusions are not shown. Lines headed by an entry give the natural chain unless they say otherwise; changes in a name come on top.
UniProt Q49A26: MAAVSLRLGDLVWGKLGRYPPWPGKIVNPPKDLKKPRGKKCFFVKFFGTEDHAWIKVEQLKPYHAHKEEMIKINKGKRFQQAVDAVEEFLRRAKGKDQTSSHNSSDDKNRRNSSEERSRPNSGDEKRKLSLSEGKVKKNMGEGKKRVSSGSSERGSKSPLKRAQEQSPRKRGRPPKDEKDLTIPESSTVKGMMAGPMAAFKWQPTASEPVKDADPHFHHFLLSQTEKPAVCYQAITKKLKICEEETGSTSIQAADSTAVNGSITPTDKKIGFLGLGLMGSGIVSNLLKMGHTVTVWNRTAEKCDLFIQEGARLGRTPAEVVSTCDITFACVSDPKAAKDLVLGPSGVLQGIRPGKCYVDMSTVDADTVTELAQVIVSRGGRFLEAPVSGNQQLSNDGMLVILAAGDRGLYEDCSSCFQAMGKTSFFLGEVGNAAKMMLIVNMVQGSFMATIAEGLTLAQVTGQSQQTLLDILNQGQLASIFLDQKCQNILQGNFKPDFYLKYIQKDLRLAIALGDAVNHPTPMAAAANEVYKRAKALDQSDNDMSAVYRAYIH
UniProt Q9Y5B9: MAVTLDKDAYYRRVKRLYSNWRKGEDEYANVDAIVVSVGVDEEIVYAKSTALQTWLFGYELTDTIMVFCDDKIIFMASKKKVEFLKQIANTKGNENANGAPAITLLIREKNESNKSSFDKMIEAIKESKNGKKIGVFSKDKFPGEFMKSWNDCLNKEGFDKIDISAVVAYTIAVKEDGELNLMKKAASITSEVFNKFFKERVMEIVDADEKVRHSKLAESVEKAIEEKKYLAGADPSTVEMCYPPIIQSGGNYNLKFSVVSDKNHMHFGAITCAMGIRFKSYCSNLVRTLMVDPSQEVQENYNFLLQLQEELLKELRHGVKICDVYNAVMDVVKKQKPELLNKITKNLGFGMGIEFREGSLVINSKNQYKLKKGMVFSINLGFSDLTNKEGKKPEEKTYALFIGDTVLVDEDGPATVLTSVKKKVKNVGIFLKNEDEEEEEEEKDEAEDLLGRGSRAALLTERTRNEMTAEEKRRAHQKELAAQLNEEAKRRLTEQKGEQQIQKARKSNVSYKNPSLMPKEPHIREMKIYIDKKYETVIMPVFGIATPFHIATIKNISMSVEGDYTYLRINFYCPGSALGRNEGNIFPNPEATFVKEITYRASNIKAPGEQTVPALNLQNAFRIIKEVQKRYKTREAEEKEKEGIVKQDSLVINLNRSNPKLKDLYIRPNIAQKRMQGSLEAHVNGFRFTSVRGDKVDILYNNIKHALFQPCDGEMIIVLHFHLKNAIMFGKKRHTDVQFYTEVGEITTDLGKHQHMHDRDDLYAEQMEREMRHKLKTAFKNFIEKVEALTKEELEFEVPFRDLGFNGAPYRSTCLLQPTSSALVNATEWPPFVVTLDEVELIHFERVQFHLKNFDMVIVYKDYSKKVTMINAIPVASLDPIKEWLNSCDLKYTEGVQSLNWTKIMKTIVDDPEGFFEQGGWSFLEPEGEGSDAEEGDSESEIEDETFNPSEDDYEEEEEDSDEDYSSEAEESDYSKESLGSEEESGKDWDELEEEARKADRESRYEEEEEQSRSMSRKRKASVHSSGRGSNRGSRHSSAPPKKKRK

Biological target: N-terminal PWWP domain of NDF, His6-tagged truncate (human) (UniProt Q49A26)
Experiment: pull-down; Ni-NTA beads, His6-tagged NDF (WT, truncates or mutants; 40 pmol) as bait with 20 pmol Flag-tagged hSpt16 or FACT in 300 µl of 10 mM Tris-HCl pH 7.5, 200 mM NaCl, 0.2% Nonidet P-40, 10% glycerol, 4 °C 3 h; SDS-PAGE, silver staining; both purified

binding: binds
Substance: Flag-tagged hSpt16 (from UniProt Q9Y5B9 1-1047)
